Reference: patent EP4610269A1 (3B Pharmaceuticals GmbH, priority 2024, dated 2025)

Tests used:
[1] = general procedure: Fmoc solid-phase peptide synthesis; DEG Rink amide; conditions: whole synthesis
[2] = general procedure: Fmoc solid-phase peptide synthesis; DEG Rink amide (loading 0.18 mmol/g); conditions: whole synthesis, scale 50 µmol, side-chain lactam ring
[3] = general procedure: Fmoc solid-phase peptide synthesis; polystyrene resin (PS or DEG) with Rink amide, 2-chloro-trityl or FMPB linker; Rink amide DEG resin loading 0.5 - 0.7 mm; conditions: for conjugation yield: conjugation step; for step yield: late stage modification step
[4] = general procedure: Fmoc solid-phase peptide synthesis; PS cysteamine 2-chlorotrityl; conditions: whole synthesis, scale 25 µmol
[5] = general procedure: Fmoc solid-phase peptide synthesis; PS 2-chlorotrityl; conditions: whole synthesis, scale 50 µmol
[6] = general procedure: Fmoc solid-phase peptide synthesis; PS 2-chlorotrityl (L-cysteinol); conditions: whole synthesis, scale 25 µmol
[7] = general procedure: Fmoc solid-phase peptide synthesis; PS FMPB (ethyl amine); conditions: whole synthesis, scale 25 µmol
[8] = general procedure: Fmoc solid-phase peptide synthesis; PS 2-chloro trityl; conditions: whole synthesis, scale 25 µmol
[9] = scale 50 µmol, one disulfide bridge
[10] = scale 25 µmol, one disulfide bridge
[11] = scale 50 µmol, one disulfide bridge, sequence written open

Q: What does the source list for “PEPTIDE1{[DOTA].[O2Oc].L.[Cys].[Cit].Q.Y.F.P.P.I.L.[Cys].[am]}$PEPTIDE1,PEPTIDE1,4:R3-13:R3$$$V2.0”?
A: isolated mass ([1]; scale 50 µmol): 17.68 mg; isolated yield ([1]; scale 50 µmol): 18.8%

Q: Which results are given for “PEPTIDE1{[Butoc].[Cys].[Cit].Q.Y.F.P.[dA].I.L.[Cys].[am]}$PEPTIDE1,PEPTIDE1,2:R3-11:R3$$$V2.0”?
A: isolated mass ([1]; scale 25 µmol): 2.15 mg; isolated yield ([1]; scale 25 µmol): 6.6%

Q: What does the source list for “Pent-[Dab-Arg-Gln-Tyr-Phe-Pro-Hyp-Ile-Nva-Glu]-NH2”?
A: isolated mass [2]: 2.00 mg; isolated yield [2]: 3.0%

Q: With “Butoc-[Cys-Thr-Lys(AF488-Ttds)-Dopa-Phe-4Cfp-Hyp-Ile-Nva-Cys]-NH2” as the substance, how does the conjugation yield ([3]; one disulfide bridge) read?
A: 17.2% of theory

Q: With “PEPTIDE1{[PentylSO2].[Cys].R.Q.Y.F.P.[Hyp].I.[Nva].[Cys].[am]}$PEPTIDE1,PEPTIDE1,2:R3-11:R3$$$V2.0” as the substance, how does the isolated mass ([1]; scale 50 µmol) read?
A: 10.13 mg

Q: And the isolated yield ([1]; scale 50 µmol)?
A: 14.8%

Q: What does the source list for “PEPTIDE1{[Pent].[Cys].R.Q.Y.F.P.[Hyp].I.[Nva].[AET]}$PEPTIDE1,PEPTIDE1,2:R3-11:R3$$$V2.0”?
A: isolated mass [4]: 6.22 mg; isolated yield [4]: 19.4%

Q: Which isolated mass ([1]; scale 25 µmol, thioether ring) does the source give for “Pent-[Cys(2MeBn)-Arg-Gln-Tyr-Phe-Pro-Hyp-Ile-Nva-Cys]-NH2” here?
A: 5.49 mg

Q: And the isolated yield ([1]; scale 25 µmol, thioether ring)?
A: 15.4%

Q: With “PEPTIDE1{[nBuCAyl].[Cys].[Cit].Q.Y.F.P.[dA].I.L.[Cys].[am]}$PEPTIDE1,PEPTIDE1,2:R3-11:R3$$$V2.0” as the substance, how does the isolated mass ([1]; scale 25 µmol) read?
A: 4.59 mg

Q: And the isolated yield ([1]; scale 25 µmol)?
A: 14.0%

Q: Which results are given for “PEPTIDE1{[Butoc].[Cys].T.[Lys_DOTA_].Y.F.[4Cfp].[Hyp].I.[Nva].[Cys].[Bal]}$PEPTIDE1,PEPTIDE1,2:R3-11:R3$$$V2.0”?
A: isolated mass [5]: 15.38 mg; isolated yield [5]: 18.4%

Q: Which isolated mass ([1]; scale 25 µmol) does the source give for “PEPTIDE1{[ac].[Phg].[Cys].R.Q.Y.F.P.[Hyp].I.[Nva].[Cys].[am]}$PEPTIDE1,PEPTIDE1,3:R3-12:R3$$$V2.0” here?
A: 4.86 mg

Q: And the isolated yield ([1]; scale 25 µmol)?
A: 13.8%

Q: What does the source list for “Butoc-[Cys-Thr-Lys(DOTA)-Tyr-Phe-4Cfp-Hyp-Ile-Dmdp-Cys]-NH2”?
A: isolated mass [1, 9]: 5.31 mg; isolated yield [1, 9]: 6.2%

Q: What does the source list for “Pent-[Cys-Orn-Lys(DOTA)-Tyr-Phe-Pro-Hyp-Ile-Nva-Cys]-NHz”?
A: isolated mass ([1]; scale 50 µmol): 18.89 mg; isolated yield ([1]; scale 50 µmol): 22.7% of theory

Q: With “PEPTIDE1{[Pent].C.[Orn].K.Y.F.P.[Hyp].I.[Nva].C.[am]}|CHEM1{[TrisPEG]}|CHEM2{[DOTA]}$PEPTIDE1,PEPTIDE1,2:R3-11:R3|PEPTIDE1,CHEM1,3:R3-1:R2|PEPTIDE1,CHEM2,4:R3-1:R2$$$V2.0” as the substance, how does the conjugation yield [3] read?
A: 41.3% of theory

Q: With “PEPTIDE1{[iHex].[Cys].[Cit].Q.[Mcy].F.P.[dA].I.L.[Cys].[am]}$PEPTIDE1,PEPTIDE1,2:R3-11:R3$$$V2.0” as the substance, how does the isolated mass ([1]; scale 25 µmol) read?
A: 2.06 mg

Q: And the isolated yield ([1]; scale 25 µmol)?
A: 6.1%

Q: Which results are given for “PEPTIDE1{[Pent].A.[Cit].Q.Y.F.P.[Hyp].I.[Nva].[Smc].[am]}$$$$V2.0”?
A: isolated mass ([1]; scale 25 µmol): 8.48 mg; isolated yield ([1]; scale 25 µmol): 25.9%

Q: With “PEPTIDE1{[NEtg].[Cys].[Cit].Q.Y.F.P.[dA].I.L.[Cys].[am]}$PEPTIDE1,PEPTIDE1,2:R3-11:R3$$$V2.0” as the substance, how does the isolated mass ([1]; scale 25 µmol) read?
A: 1.08 mg

Q: What about the isolated yield ([1]; scale 25 µmol) of the same substance?
A: 3.3%

Q: Which results are given for “PEPTIDE1{[Pent].[Cys].[Cit].Q.Y.F.P.[Hyp].I.[Nva].[Cysol]}$PEPTIDE1,PEPTIDE1,2:R3-11:R3$$$V2.0”?
A: isolated mass [6]: 1.38 mg; isolated yield [6]: 4.2%

Q: Which results are given for “PEPTIDE1{[Pent].[Cys(meth)].[Cit].Q.Y.F.P.[Hyp].I.[Nva].C.[am]}$PEPTIDE1,PEPTIDE1,2:R3-11:R3$$$V2.0”?
A: isolated mass ([1]; scale 50 µmol): 3.73 mg; isolated yield ([1]; scale 50 µmol): 5.6%

Q: What does the source list for “PEPTIDE1{[nBuCAyl].[Cys].T.[Lys_DOTA_].Y.F.P.[Hyp].I.[Nva].[Cys].[am]}$PEPTIDE1,PEPTIDE1,2:R3-11:R3$$$V2.0”?
A: isolated mass ([1]; scale 50 µmol): 15.38 mg; isolated yield ([1]; scale 50 µmol): 18.4%

Q: Which results are given for “PEPTIDE1{[iHex].[Cys].[Lys_DOTA_].Q.Y.F.P.P.I.L.[Cys].[am]}$PEPTIDE1,PEPTIDE1,2:R3-11:R3$$$V2.0”?
A: isolated mass ([1]; scale 50 µmol): 13.14 mg; isolated yield ([1]; scale 50 µmol): 15.5%

Q: Which results are given for “PEPTIDE1{[Butoc].C.T.K.Y.F.[4Cfp].[Hyp].I.[Nva].C.[am]}|PEPTIDE2{[DOTA].[dD]}$PEPTIDE1,PEPTIDE1,2:R3-11:R3|PEPTIDE1,PEPTIDE2,4:R3-2:R2$$$V2.0”?
A: isolated mass ([1]; scale 50 µmol): 6.99 mg; isolated yield ([1]; scale 50 µmol): 7.8%

Q: With “Pent-[Cys-Cit-Lys(GdDOTA)-Tyr-Ocf-Pro-Hyp-Ile-Nva-Cys]-NH2” as the substance, how does the step yield ([3]; one disulfide bridge) read?
A: 82.6%

Q: Which isolated mass ([1]; scale 50 µmol) does the source give for “PEPTIDE1{[Butoc].C.T.K.Y.F.[4Cfp].[Hyp].I.[Nva].C.[am]}|PEPTIDE2{[DOTA].[Kzw]}$PEPTIDE1,PEPTIDE1,2:R3-11:R3|PEPTIDE1,PEPTIDE2,4:R3-2:R2$$$V2.0” here?
A: 13.61 mg

Q: And the isolated yield ([1]; scale 50 µmol)?
A: 13.8%

Q: For “PEPTIDE1{[Me].[Nml].[Cys].R.Q.Y.F.P.[Hyp].I.[Nva].[Cys].[am]}$PEPTIDE1,PEPTIDE1,3:R3-12:R3$$$V2.0”, which isolated mass ([1]; scale 50 µmol) is on record?
A: 6.30 mg

Q: What about the isolated yield ([1]; scale 50 µmol) of the same substance?
A: 9.1%

Q: For “PEPTIDE1{[Pent].[Cys].[Cit].Q.Y.F.P.[Hyp].I.[Nva].[Cys].[NHEt]}$PEPTIDE1,PEPTIDE1,2:R3-11:R3$$$V2.0”, which isolated mass [7] is on record?
A: 0.96 mg

Q: And the isolated yield [7]?
A: 2.8%

Q: With “Butoc-[Cys-Thr-Lys(DOTA)-Dopa-Phe-4Cfp-Hyp-Ile-Nva-Cys]-NH2” as the substance, how does the step yield ([3]; one disulfide bridge) read?
A: 91.3%

Q: For “PEPTIDE1{[Pent].C.[Cit].K.Y.F.P.[Hyp].I.[Nva].C.[am]}|PEPTIDE2{[DOTA].[PEG12]}$PEPTIDE1,PEPTIDE1,2:R3-11:R3|PEPTIDE1,PEPTIDE2,4:R3-2:R2$$$V2.0”, which isolated mass ([1]; scale 50 µmol) is on record?
A: 9.98 mg

Q: And the isolated yield ([1]; scale 50 µmol)?
A: 8.6%

Q: For “Butoc-[Cys-Thr-Lys(H-Ttds)-Tyr-Phe-4Cfp-Hyp-Ile-Nva-Cys]-NH2”, which isolated mass ([1]; scale 100 µmol) is on record?
A: 24.9 mg

Q: What about the isolated yield ([1]; scale 100 µmol) of the same substance?
A: 15.4% of theory

Q: Which isolated mass ([1]; scale 50 µmol) does the source give for “PEPTIDE1{[Butoc].[Cys].T.[Orn_DOTA_].[Pcnf].F.[4Cfp].[Hyp].I.[Nva].[Cys].[am]}$PEPTIDE1,PEPTIDE1,2:R3-11:R3$$$V2.0” here?
A: 10.55 mg

Q: What about the isolated yield ([1]; scale 50 µmol) of the same substance?
A: 12.4%

Q: Which results are given for “AGLU-Glutar-Nva-[Cys-Cit-Gln-Tyr-Phe-Pro-Hyp-Ile-Nva-Cys]-NHz”?
A: isolated mass [1, 10]: 7.85 mg; isolated yield [1, 10]: 19.4%

Q: With “PEPTIDE1{[Pent].C.[Cit].K.Y.F.P.[Nmk].I.[Nva].C.[am]}|PEPTIDE2{[Bio].[Ttds]}$PEPTIDE1,PEPTIDE1,2:R3-11:R3|PEPTIDE1,PEPTIDE2,4:R3-2:R2$$$V2.0” as the substance, how does the isolated mass ([1]; scale 50 µmol) read?
A: 3.91 mg

Q: And the isolated yield ([1]; scale 50 µmol)?
A: 4.2%

Q: Which isolated mass ([1]; scale 50 µmol) does the source give for “PEPTIDE1{[Butoc].[Cys].T.[Orn_DOTA_].[Ay3].F.[4Cfp].[Hyp].I.[Nva].[Cys].[am]}$PEPTIDE1,PEPTIDE1,2:R3-11:R3$$$V2.0” here?
A: 1.21 mg

Q: What about the isolated yield ([1]; scale 50 µmol) of the same substance?
A: 1.4%

Q: Which results are given for “PEPTIDE1{[Butoc].[Cys].T.[Orn_DOTA_].[My].F.[4Cfp].[Hyp].I.[Nva].[Cys].[am]}$PEPTIDE1,PEPTIDE1,2:R3-11:R3$$$V2.0”?
A: isolated mass ([1]; scale 50 µmol): 10.65 mg; isolated yield ([1]; scale 50 µmol): 12.7%

Q: Which isolated mass ([1]; scale 50 µmol) does the source give for “PEPTIDE1{[Pent].C.[Orn].K.Y.F.P.[Hyp].I.[Nva].C.[am]}|PEPTIDE2{[DOTA]}|PEPTIDE3{[TrisNtaTris]}$PEPTIDE1,PEPTIDE1,2:R3-11:R3|PEPTIDE1,PEPTIDE2,4:R3-1:R2|PEPTIDE1,PEPTIDE3,3:R3-1:R2$$$V2.0” here?
A: 5.44 mg

Q: What about the isolated yield ([1]; scale 50 µmol) of the same substance?
A: 5.3%

Q: Which results are given for “PEPTIDE1{[Pent].[Cys].[Cit].Q.Y.F.P.[dA].I.L.[Cys].[am]}$PEPTIDE1,PEPTIDE1,2:R3-11:R3$$$V2.0”?
A: isolated mass ([1]; scale 25 µmol): 5.30 mg; isolated yield ([1]; scale 25 µmol): 16.4%

Q: What does the source list for “Pent-[Cys-Glu(AGLU)-Gln-Tyr-Phe-Pro-Hyp-Ile-Nva-Cys]-NH2”?
A: isolated mass [1, 10]: 3.15 mg; isolated yield [1, 10]: 8.6%

Q: Which results are given for “PEPTIDE1{[iHex].[Cys].[Cit].Q.Y.F.P.[dA].I.L.[Cys]}$PEPTIDE1,PEPTIDE1,2:R3-11:R3$$$V2.0”?
A: isolated mass [8]: 5.10 mg; isolated yield [8]: 15.6%

Q: For “Pent-Cys-Om(mPEG12)-Lys(DOTA)-Tyr-Phe-Pro-Hyp-Ile-Nva-Cys-NH2”, which isolated mass [1, 11] is on record?
A: 8.49 mg

Q: And the isolated yield [1, 11]?
A: 7.6%

Q: Which isolated mass ([1]; scale 25 µmol) does the source give for “PEPTIDE1{[Glutar].[Cys].[Cit].Q.Y.F.P.[dA].I.L.[Cys].[am]}$PEPTIDE1,PEPTIDE1,2:R3-11:R3$$$V2.0” here?
A: 6.76 mg

Q: What about the isolated yield ([1]; scale 25 µmol) of the same substance?
A: 20.4%

For some assays here: HELM strings list residues between dots; [ac] is acetyl, [am] amide, other brackets name non-standard units.
